# Results reported in patent US20060019386A1.
# These are yes or no findings as the source states them, for the method shown. In cells and extracts the contact can be indirect. Some binding calls cover weakened binding; strength is not graded here. Tags and fused reporters may be left off the sequences shown.
# T1: Myc tagged Da (fly (Drosophila)) (UniProt P11420)
# T1 sequence (looked up): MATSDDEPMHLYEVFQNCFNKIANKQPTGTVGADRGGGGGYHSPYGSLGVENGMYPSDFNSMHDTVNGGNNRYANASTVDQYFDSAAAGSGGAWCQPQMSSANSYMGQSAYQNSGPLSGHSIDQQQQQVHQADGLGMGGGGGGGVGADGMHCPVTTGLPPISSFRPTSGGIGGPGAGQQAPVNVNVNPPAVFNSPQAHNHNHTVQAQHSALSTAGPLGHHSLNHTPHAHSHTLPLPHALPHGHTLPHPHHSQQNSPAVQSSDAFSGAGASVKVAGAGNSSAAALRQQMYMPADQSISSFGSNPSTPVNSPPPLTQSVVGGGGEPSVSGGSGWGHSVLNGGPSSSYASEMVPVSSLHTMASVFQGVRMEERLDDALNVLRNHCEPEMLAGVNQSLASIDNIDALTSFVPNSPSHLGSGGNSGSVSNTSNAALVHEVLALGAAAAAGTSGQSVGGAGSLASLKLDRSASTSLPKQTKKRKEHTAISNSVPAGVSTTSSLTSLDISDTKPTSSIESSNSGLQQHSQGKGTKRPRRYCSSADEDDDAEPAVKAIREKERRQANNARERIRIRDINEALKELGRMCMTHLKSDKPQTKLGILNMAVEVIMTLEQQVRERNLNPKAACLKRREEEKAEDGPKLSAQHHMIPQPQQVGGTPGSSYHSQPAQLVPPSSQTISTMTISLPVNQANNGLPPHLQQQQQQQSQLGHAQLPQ
# B1: mouse NGN1 (protein, UniProt P70660 1-244, looked up)
# chain: MPAPLETCISDLDCSSSNSSSDLSSFLTDEEDCARLQPLASTSGLSVPARRSAPALSGASNVPGAQDEEQERRRRRGRARVRSEALLHSLRRSRRVKANDRERNRMHNLNAALDALRSVLPSFPDDTKLTKIETLRFAYNYIWALAETLRLADQGLPGGSARERLLPPQCVPCLPGPPSPASDTESWGSGAAASPCATVASPLSDPSSPSASEDFTYGPGDPLFSFPGLPKDLLHTTPCFIPYH
# B2: mouse MATH1 (protein, UniProt P48985 1-351, looked up)
# chain: MSRLLHAEEWAEVKELGDHHRHPQPHHVPPLTPQPPATLQARDLPVYPAELSLLDSTDPRAWLTPTLQGLCTARAAQYLLHSPELGASEAAAPRDEADSQGELVRRSGCGGLSKSPGPVKVREQLCKLKGGVVVDELGCSRQRAPSSKQVNGVQKQRRLAANARERRRMHGLNHAFDQLRNVIPSFNNDKKLSKYETLQMAQIYINALSELLQTPNVGEQPPPPTASCKNDHHHLRTASSYEGGAGASAVAGAQPAPGGGPRPTPPGPCRTRFSGPASSGGYSVQLDALHFPAFEDRALTAMMAQKDLSPSLPGGILQPVQEDNSKTSPRSHRSDGEFSPHSHYSDSDEAS
# B3: fly ATO (protein, fly (Drosophila), UniProt P48987 1-312, looked up)
# chain: MSSSEIYRYYYKTSEDLQGFKTAAAEPYFNPMAAYNPGVTHYQFNGNTLASSSNYLSANGFISFEQASSDGWISSSPASHRSESPEYVDLNTMYNGGCNNMAQNQQYGMIMEQSVVSTAPAIPVASPPAVEVMGSSNVGTCKTIPASAGPKPKRSYTKKNQPSTTATSTPTAAAESSASVNLYTEEFQNFDFDNSALFDDSVEDDEDLMLFSGGEDFDGNDGSFDLADGENQDAAAGGSGKKRRGKQITPVVKRKRRLAANARERRRMQNLNQAFDRLRQYLPCLGNDRQLSKHETLQMAQTYISALGDLLR
# Key:
# [1] = molecular target: T1, Myc tagged Da (fly (Drosophila)); assay: co-immunoprecipitation of 35S-labeled protein with Myc tagged Da using anti-Myc antibodies (FIG. 4, Panel A)
# [2] = molecular target: T1, Myc tagged Da (fly (Drosophila)); assay: co-immunoprecipitation of 35S-labeled protein with Da-Myc using anti-Myc antibodies, SDS-PAGE autoradiography
Binder,binding [1],binding [2]
B1,binds,binds
B2,–,binds
B3,–,binds
